# Experimental data published in article PMC10404622.
# By UniProt entry, the sequences of proteins in these tests, tags left out. Where a name states a change or a piece, a line headed by the entry shows the natural chain unless it says otherwise.
# UniProt P09012: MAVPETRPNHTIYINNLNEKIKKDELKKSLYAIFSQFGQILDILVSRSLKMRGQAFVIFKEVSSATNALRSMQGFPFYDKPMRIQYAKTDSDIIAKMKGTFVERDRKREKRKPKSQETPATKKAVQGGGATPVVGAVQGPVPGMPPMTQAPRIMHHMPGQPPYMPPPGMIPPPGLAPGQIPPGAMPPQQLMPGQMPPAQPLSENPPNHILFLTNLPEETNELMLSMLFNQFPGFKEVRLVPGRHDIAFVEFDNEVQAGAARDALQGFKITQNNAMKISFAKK
# UniProt P08621: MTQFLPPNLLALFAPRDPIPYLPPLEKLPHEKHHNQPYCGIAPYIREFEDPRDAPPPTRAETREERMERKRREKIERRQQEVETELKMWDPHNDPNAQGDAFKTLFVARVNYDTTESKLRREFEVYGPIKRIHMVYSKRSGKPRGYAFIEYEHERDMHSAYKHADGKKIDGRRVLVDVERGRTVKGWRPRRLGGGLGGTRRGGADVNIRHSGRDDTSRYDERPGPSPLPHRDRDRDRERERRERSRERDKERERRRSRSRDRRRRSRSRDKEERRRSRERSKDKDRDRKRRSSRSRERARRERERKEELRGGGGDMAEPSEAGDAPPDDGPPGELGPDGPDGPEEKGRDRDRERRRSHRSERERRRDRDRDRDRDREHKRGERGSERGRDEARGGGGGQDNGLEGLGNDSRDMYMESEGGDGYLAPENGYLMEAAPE
# UniProt P09234: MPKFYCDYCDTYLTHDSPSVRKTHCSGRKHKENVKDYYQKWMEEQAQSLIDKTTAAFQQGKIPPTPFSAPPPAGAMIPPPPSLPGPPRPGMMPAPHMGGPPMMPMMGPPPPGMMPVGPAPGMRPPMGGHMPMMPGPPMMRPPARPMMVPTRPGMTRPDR
# Results are given in words; binding and its absence hold for the method and conditions named. In cells and extracts the contact can be indirect. Some results given as binding are weak or reduced against the parent protein; the word gives no strength.
# Target: U1A (human (endogenous in HeLa)) (UniProt P09012)
# Experiment: co-IP; anti-U1A antibody (control IgG beside it); HeLa nuclear extract in the presence of control or U1 AMO (Fig. 1B), and nuclear extract of HeLa cells transfected with control or U1 AMO (Fig. S2A); Western blot for U1-70K, U1A, U1C
row,binding,Substance
1,binds,U1-70K (from UniProt P08621 1-437)
2,binds,U1C (from UniProt P09234 1-159)
